Assay results published in patent publication US20150218252A1, “SELF-ASSEMBLING PEPTIDES, PEPTIDE NANOSTRUCTURES AND USES THEREOF” (President and Fellows of Harvard College, priority 2012, published 2015).
Some entries share one result that the patent states for a list of compounds. Residues, ends and D or L forms follow the SMILES beside them.

Experiment: Stability of self-assembled peptide nanoparticles determined by DLS
Assay type: physicochemical
Conditions: formed in cold saline (~0.9% NaCl), cold precipitation method
Method: The self-assembled peptide nanoparticles formed (e.g., from FF or YF peptides) in cold water (cold deionized water) as shown in Example 2 were stable for about 2 hours before they eventually disaggregated as determined by DLS. To increase the stability of FF and YF, a solvent injection protocol was used. That is, the peptide constructs were dissolved in an organic solvent (e.g., but not limited to, DMSO, acetone, ethanol, dioxane, acetonitrile, methanol, and THF) at ˜150 mg/ml and a fixed volume was then injected in cold saline solution (e.g., but not limited to, ˜0.9% NaCl) while stirring. Different concentrations and/or types of salts could be used to prepare the saline solution, depending on the solubility of the peptide constructs in the respective solution. In some embodiments, any buffer solution such as PBS, acetate, succinate and citrate buffer could be used instead. The resulting particles size varied with peptide concentration from about 5 mg/ml to about 50 mg/ml with low polydispersities (FIGS. 4A-4B). By addition of 0.9% NaCl in the cold solution, the stability of the particles was increased from about 2 h to about 24 h as determined by DLS. […] Thus, in one embodiment, the average size of the nanoparticles can be controlled by simply varying the temperature of the formulation buffere, e.g., at room temperature or under cold ˜2-4° C. conditions. […]

In the case of CC(C)[C@H](N)C(=O)N1CCC[C@H]1C(=O)NCC(=O)N[C@@H](Cc1ccc(O)cc1)C(=O)NCC(=O)O [Y, VPGYG] (H-VPGYG-OH), the particle stability is reported as “at least 120 hours”.
With CC(C)[C@H](N)C(=O)N1CCC[C@H]1C(=O)NCC(=O)N[C@@H](Cc1ccc(O)cc1)C(=O)NCC(=O)N[C@H](C(=O)N1CCC[C@H]1C(=O)NCC(=O)N[C@@H](Cc1ccccc1)C(=O)NCC(=O)O)C(C)C [YF, VPGYGVPGFG] (H-VPGYGVPGFG-OH) the particle stability was “at least 120 hours”.
